The conditions of the data set: percent weight lost, 0 to 72 hours.

Where a name gives a salt, the structure may show the parent alone.

The molecule `NCC(=O)O` [6M Glycine—HCl, glycine hydrochloride] registered a Decomposition of 5.3%. With `Cl` [6M HCl, hydrochloric acid] the figure was 45.1%.

The record behind these values is patent US9770045B2, “Preservation of animal feed and hydrolysis of polysaccharides using amino acids as salts or with acids” (priority 2015, dated 2017).
